No constants are given. Whether binding was seen depends on the method and setting. In cells and extracts the contact can be indirect. Binding can be weak; no strength is given.
Target: endogenous P300 (human (endogenous; cell line not named, all cell lines of the paper are human)) (UniProt Q09472)
Experiment: co-IP; […]; antibody 12 h at 4°C, […]

The chains behind the UniProt entries cited, without tags or fusion partners.
UniProt Q09472: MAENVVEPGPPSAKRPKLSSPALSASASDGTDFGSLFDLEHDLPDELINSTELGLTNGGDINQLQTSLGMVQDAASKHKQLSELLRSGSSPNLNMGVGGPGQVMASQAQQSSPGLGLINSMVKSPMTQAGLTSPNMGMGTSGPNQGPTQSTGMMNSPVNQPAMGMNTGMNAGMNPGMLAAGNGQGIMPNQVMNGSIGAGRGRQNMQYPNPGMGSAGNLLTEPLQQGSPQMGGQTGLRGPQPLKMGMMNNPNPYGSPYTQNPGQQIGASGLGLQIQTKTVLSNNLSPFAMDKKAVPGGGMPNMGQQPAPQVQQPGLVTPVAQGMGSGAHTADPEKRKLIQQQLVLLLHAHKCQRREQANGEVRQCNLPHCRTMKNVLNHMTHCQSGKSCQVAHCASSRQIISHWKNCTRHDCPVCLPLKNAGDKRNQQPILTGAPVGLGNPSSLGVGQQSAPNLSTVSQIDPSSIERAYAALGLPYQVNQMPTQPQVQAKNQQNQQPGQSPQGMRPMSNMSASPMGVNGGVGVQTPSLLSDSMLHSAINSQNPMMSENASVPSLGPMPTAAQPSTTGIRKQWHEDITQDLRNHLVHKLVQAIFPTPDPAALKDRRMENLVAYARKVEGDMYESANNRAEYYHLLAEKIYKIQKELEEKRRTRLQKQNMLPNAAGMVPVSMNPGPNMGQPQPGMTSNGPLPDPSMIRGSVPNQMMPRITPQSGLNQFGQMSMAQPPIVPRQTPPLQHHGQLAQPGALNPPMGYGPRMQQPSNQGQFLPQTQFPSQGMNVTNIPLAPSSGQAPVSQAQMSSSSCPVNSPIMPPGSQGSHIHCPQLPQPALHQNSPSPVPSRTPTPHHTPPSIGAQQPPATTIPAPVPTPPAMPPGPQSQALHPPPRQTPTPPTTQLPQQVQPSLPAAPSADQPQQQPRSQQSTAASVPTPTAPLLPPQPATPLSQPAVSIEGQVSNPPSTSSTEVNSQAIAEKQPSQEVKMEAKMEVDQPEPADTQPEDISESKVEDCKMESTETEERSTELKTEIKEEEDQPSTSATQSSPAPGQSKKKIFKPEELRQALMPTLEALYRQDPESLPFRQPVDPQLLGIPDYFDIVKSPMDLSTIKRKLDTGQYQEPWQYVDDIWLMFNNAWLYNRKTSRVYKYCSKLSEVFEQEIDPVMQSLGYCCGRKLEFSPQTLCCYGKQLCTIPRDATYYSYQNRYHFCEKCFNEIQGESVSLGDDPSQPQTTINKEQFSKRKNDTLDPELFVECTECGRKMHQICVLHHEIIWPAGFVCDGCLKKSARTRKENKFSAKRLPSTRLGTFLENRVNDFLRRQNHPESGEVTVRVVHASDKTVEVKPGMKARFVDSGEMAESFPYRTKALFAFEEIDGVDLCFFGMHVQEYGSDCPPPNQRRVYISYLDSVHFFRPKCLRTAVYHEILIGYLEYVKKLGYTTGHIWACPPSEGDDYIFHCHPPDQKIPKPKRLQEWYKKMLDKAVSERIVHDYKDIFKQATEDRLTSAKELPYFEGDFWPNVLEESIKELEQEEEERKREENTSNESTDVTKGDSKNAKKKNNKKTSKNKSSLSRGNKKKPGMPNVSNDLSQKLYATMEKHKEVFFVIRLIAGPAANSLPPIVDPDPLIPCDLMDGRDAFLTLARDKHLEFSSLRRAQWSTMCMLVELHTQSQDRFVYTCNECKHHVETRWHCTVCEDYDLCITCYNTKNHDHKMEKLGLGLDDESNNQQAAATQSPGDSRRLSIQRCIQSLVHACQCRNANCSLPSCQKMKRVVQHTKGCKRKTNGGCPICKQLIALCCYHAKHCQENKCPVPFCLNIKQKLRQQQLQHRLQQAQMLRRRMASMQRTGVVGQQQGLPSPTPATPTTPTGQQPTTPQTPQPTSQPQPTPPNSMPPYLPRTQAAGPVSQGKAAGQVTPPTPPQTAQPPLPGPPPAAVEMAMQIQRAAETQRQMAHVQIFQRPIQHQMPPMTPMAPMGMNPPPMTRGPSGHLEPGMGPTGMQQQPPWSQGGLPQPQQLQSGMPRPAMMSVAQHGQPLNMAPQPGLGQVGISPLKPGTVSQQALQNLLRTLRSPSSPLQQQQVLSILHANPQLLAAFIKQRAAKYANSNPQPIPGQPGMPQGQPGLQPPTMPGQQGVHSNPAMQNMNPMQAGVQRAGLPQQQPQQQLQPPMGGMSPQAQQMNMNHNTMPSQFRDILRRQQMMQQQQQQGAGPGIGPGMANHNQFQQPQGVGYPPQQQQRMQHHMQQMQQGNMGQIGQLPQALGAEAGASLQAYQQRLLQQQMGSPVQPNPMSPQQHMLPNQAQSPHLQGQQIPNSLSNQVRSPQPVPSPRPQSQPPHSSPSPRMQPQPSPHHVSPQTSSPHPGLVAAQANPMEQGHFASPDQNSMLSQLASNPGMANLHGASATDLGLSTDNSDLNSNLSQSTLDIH

For “endogenous NEDD4 (from UniProt P46934-4) (enzyme)”, the binding was “binds”.
